Data reported in paper PMC4925830.
Substitutions are numbered along the chain they refer to. No constants are given. Whether binding was seen depends on the method and setting. In cells and extracts the contact can be indirect. Some results given as binding are weak or reduced against the parent protein; the word gives no strength. Where a sequence is shown, tags or fusion partners need not be part of it.

Legend:
Fkh1-TAP (S. cerevisiae) = molecular target: T1, Fkh1-TAP (S. cerevisiae) (UniProt P40466); test: co-IP; Fkh1-TAP precipitated from yeast lysates (RIPA buffer lacking SDS) on IgG Sepharose 6 Fast Flow beads, 4°C, 90 minutes; Westerns with antibodies against TAP and GST; asynchronous log phase cells, and cells released synchronously from HU S phase arrest with samples every 30 minutes
T1 sequence: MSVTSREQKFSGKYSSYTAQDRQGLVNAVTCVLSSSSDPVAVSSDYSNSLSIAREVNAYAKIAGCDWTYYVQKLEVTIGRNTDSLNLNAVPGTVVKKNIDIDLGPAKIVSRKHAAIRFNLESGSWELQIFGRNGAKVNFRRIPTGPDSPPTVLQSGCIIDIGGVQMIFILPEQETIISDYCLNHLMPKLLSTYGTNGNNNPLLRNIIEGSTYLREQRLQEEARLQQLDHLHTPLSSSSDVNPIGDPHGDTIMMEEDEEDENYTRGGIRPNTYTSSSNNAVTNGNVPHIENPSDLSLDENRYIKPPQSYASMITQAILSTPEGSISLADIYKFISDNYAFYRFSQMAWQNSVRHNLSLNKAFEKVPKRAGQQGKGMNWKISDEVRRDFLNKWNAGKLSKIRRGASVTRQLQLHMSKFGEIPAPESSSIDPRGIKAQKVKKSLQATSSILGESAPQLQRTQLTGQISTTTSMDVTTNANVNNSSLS

[1] = molecular target: T2, Fkh1^K-R (Fkh1 K373R-TAP) (S. cerevisiae) (UniProt P40466); test: as above
T2 sequence: T1 sequence with K373R

- binding (Fkh1-TAP (S. cerevisiae)): binds
- binding [1]: binds
B1: GST-Apc5 (protein, UniProt Q08683 1-685)
chain: MSKYGPLGITNFITPYDLCILILIHAHCSQDNGISVPTAVFLRLISPTRPSLEWNPLLKDNSNLRSSSIVPPPVLPILDNIIRILLDDKDGNKIALTLMGYLEAINGLDSINRLMMDLEKNCLVNNYRSMKMRTTSTRRQMTRASFLGTFLSTCIRKYQIGDFEMRETIWINLQNFKTVFKHTPLWLRFKDNVHIQKVKNCLLANDEISVEDQQMVEFFQHFNNGNDADSKTMNEENYGTLISIQHLQSIVNRQIVNWLDNTEFNLMGQEETSSTYEEQSGLVFDLLDTLSLNDATKFPLIFILKYLEAIKENSYQTALDSLHNYFDYKSTGNSQNYFHISLLSLATFHSSFNECDAAINSFEEATRIARENKDMETLNLIMIWIINFIEVHPEYANRFYITVEQIIKYLKNSSDVEDANIFSNAYKFETLLSMVKESKTAEVSSSLLKFMAITLQNVPSQNFDLFQSLVSYEVKFWKELGYESISDVYEKFLSKTSSSSLRNYDSSIINQDIKVAFKALEEDDFLKVKQYLLKSESLELDYDQKINLKYLRVKYLVKIGDYDLSMRLINQYVKECCEEVADSNWRFKFEIESINVLLLSDVGIRSLPKIIKLIDEYKEIGNPLRCVILLLKLCEVLIQVGKSMEAECLISCNLSTILEFPFVRKKTDELLESLSVEEDRDVQMT
